Results are given in words; binding and its absence hold for the method and conditions named. In cells and extracts the contact can be indirect. Some binding calls cover weakened binding; strength is not graded here.

Protein sequences, listed by entry. Tags and fused reporters are not part of them.
UniProt Q09472: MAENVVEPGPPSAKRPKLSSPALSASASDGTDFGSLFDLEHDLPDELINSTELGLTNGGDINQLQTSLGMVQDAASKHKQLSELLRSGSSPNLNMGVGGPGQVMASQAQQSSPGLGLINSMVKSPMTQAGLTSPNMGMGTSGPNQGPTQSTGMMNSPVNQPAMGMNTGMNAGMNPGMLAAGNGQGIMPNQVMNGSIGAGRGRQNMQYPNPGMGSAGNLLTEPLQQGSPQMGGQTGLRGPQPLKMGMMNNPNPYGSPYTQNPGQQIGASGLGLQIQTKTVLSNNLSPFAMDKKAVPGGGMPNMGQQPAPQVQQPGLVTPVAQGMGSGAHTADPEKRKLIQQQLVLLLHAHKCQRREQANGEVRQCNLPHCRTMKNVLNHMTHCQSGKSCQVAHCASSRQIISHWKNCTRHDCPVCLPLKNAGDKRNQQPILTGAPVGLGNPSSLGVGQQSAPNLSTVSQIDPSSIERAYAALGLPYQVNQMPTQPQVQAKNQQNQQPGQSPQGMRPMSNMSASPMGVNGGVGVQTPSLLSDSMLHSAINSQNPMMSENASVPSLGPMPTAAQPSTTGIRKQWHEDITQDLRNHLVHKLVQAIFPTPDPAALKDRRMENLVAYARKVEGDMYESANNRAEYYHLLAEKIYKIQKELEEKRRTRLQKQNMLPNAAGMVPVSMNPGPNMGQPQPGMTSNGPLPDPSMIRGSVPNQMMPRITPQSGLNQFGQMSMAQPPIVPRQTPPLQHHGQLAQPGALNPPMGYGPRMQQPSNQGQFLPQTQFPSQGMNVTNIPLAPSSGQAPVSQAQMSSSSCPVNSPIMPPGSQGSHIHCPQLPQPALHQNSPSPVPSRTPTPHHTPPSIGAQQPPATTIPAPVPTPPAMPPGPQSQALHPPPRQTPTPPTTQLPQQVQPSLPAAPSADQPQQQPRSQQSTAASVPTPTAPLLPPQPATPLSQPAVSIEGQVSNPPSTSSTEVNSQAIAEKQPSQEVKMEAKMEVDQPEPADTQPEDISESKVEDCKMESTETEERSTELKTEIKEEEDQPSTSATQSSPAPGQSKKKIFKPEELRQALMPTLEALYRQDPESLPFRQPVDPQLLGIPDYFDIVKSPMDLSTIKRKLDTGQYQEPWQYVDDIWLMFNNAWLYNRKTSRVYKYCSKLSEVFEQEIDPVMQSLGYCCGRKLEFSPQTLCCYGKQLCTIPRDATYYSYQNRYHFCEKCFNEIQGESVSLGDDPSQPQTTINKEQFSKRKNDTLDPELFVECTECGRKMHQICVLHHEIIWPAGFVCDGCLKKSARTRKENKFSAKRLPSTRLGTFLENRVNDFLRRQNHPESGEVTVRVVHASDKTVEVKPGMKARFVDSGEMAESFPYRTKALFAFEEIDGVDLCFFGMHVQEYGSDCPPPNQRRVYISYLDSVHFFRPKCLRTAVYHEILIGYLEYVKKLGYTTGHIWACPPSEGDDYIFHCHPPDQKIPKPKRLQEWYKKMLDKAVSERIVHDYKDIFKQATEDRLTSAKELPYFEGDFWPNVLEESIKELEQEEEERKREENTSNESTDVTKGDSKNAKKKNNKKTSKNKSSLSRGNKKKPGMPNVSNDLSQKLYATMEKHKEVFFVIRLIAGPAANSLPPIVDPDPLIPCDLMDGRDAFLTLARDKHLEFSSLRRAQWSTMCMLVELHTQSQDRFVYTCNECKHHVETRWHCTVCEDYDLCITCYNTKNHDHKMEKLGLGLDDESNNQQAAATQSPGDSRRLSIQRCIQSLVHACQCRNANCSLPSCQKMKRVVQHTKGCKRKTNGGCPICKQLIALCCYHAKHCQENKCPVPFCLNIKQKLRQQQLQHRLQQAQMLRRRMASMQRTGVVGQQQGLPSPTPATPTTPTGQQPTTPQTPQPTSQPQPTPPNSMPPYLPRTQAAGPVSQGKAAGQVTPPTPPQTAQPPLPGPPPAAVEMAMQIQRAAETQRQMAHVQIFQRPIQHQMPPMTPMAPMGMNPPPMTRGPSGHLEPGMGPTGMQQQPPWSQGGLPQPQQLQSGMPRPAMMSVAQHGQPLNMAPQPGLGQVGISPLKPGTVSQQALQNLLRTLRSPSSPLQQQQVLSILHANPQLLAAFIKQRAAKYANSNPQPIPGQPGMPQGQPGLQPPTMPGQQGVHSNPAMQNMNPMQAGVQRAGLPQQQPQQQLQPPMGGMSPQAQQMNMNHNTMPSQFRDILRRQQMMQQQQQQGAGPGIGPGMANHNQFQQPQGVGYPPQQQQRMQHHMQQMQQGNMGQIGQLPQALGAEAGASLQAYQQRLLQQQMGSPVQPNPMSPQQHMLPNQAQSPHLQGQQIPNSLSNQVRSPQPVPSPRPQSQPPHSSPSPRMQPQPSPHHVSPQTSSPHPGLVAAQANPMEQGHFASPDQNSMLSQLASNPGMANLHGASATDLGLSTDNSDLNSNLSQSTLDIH

In the experiment the target is p300 (human (endogenous in HRMCs)) (UniProt Q09472). In words: co-IP; HRMCs treated with 10 ug/ml LPS for the indicated times; lysates with 1 mg of protein incubated with 2 ug anti-c-Src or anti-p300 antibody at 4°C for 24 h, then protein A-agarose beads; washed thrice with lysis buffer without Triton X-100; Western blot with anti-TLR4, anti-p47phox, anti-c-Src, anti-p300 or anti-ATF2 antibody. (A western blot detects proteins with antibodies after separation by electrophoresis.)

B1: activating transcription factor 2 (protein, UniProt P15336 1-505)
chain: MKFKLHVNSARQYKDLWNMSDDKPFLCTAPGCGQRFTNEDHLAVHKHKHEMTLKFGPARNDSVIVADQTPTPTRFLKNCEEVGLFNELASPFENEFKKASEDDIKKMPLDLSPLATPIIRSKIEEPSVVETTHQDSPLPHPESTTSDEKEVPLAQTAQPTSAIVRPASLQVPNVLLTSSDSSVIIQQAVPSPTSSTVITQAPSSNRPIVPVPGPFPLLLHLPNGQTMPVAIPASITSSNVHVPAAVPLVRPVTMVPSVPGIPGPSSPQPVQSEAKMRLKAALTQQHPPVTNGDTVKGHGSGLVRTQSEESRPQSLQQPATSTTETPASPAHTTPQTQSTSGRRRRAANEDPDEKRRKFLERNRAAASRCRQKRKVWVQSLEKKAEDLSSLNGQLQSEVTLLRNEVAQLKQLLLAHKDCPVTAMQKKSGYHTADKDDSSEDISVPSSPHTEAIQHSSVSTSNGVSSTSKAEAVATSVLTQMADQSTEPALSQIVMAPSSQSQPSGS
With B1, the binding result is recorded as “binds”.

For the origin of these results see publication PMC3509033.
